The experiment has as its target Protein arginine methyltransferase 6 (human (endogenous in LN229 and U251)) (UniProt Q96LA8). Description: affinity purification with mass spectrometry; proteins binding PRMT6 in LN229 and U251 cells identified by mass spectrometry; hits shared by both cell lines; how PRMT6 was isolated is not told.

Chains of the proteins cited; added tags and fusions are not shown.
UniProt Q96LA8: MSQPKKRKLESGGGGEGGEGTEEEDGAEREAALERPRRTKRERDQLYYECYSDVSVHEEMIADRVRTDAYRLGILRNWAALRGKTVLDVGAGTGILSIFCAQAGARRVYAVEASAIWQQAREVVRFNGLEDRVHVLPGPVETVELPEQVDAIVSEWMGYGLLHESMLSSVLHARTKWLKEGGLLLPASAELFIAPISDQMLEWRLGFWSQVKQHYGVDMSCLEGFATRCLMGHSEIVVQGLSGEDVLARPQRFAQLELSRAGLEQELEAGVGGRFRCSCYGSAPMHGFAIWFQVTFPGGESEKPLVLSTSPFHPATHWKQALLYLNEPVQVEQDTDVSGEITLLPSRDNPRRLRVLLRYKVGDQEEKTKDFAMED
UniProt P50750: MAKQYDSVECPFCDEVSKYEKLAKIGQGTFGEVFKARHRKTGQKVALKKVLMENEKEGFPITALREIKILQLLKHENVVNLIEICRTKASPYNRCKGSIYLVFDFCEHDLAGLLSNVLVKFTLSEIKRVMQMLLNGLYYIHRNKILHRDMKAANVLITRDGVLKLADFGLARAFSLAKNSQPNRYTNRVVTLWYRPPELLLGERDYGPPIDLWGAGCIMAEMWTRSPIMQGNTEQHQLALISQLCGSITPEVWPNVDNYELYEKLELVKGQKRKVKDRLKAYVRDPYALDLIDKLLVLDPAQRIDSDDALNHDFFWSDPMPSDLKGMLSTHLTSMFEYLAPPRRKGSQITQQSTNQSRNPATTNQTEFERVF

These are yes or no findings as the source states them, for the method shown. Binding seen in cells or lysates may run through a third protein. Here binding means that the protein was enriched with, or labelled near, the bait; the list need not be complete.

In the case of “CDK9 (from UniProt P50750 1-372) (enzyme)”, the binding result is on record as “binds”.

Source of the values: article PMC11025288.
